The exact form of at least one protein or probe is not confirmed. No signal at the amounts used counts as a negative. At least one verdict was read from the data and is not stated in words by the source.
Tested on: MBP-BES1 (Arabidopsis thaliana)
Assay: EMSA
Conditions: EMSA: 25 mM HEPES-KOH pH 8.0, 50 mM KCl, 1 mM DTT, 10% glycerol, 20 ul, at least 30 min on ice, about 1 ng probe, 5% native PAGE in TBE, recombinant protein

Sequence	binding result (label: biotin (Fig 6 legend), Methods say 32P)	binding result (label: biotin or unlabeled)
AGTGATGATAATCATGTGAGTGCATGTGCATCGAGTTGTA (double strand) [UPB1 promoter E5/E6 probe]	binds	
AGTGATGATAATCATGTGAGTGTCTGGACATCGAGTTGTA (double strand) [UPB1 promoter E5/mE6 probe]		no binding
AGTGATGATAATTCTGGAAGTGTCTGGACATCGAGTTGTA (double strand) [UPB1 promoter mE5/mE6 probe]		no binding

From paper PMC7360063, “Brassinosteroids regulate root meristem development by mediating BIN2-UPB1 module in Arabidopsis” (PLoS Genetics, 2020)
